# Screening data

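Genome-wide siRNA knockdown in TC32 Ewing sarcoma cells, comparing luciferase light from an NR0B1-promoter reporter with a CMV-promoter reporter 48 hours after transfection.
Each siRNA was applied at 20 nM.
A z-score of the log NR0B1-over-CMV signal, less the median of siRNAs with the same seed; more negative means a stronger specific loss of the NR0B1 reporter.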

The strongest results of the screen are mostly left out here.
Sequences are the guide (antisense) strand, without overhang.

Sequence: UGACAUAUCGGUCUGACUG
target gene: RPL32
seed-corrected z-score: -1.643

Sequence: UCGCUUAUAACACUGCUGG
target gene: CAPRIN2
seed-corrected z-score: 0.06352

Sequence: UUAGCUUUAAAAUGCAUCU
target gene: GATS
seed-corrected z-score: 0.6509

Sequence: UUCAAUCUCGCCGCGUUCC
target gene: RAB11FIP5
seed-corrected z-score: -1.237

Sequence: UAAUUUUGAAGGUCAAAUC
target gene: KRTAP4-1
seed-corrected z-score: 0.8976

Sequence: UUGAAGACCAUGCACCUGC
target gene: NR5A1
seed-corrected z-score: 0.1969

Sequence: UUCUGCACCACGUCGUUGG
target gene: CLDN14
seed-corrected z-score: -0.6454

Sequence: AGGGUUUCCAACAAUGUUC
target gene: FGFBP2
seed-corrected z-score: 0.2628

Sequence: UGAAUAUGGAGUGUAGGCU
target gene: ZNF586
seed-corrected z-score: -0.2379

Sequence: UUUGAUAGUCCUUCGAAGC
target gene: FAM179B
seed-corrected z-score: -0.9771

Sequence: AAAGGAUAUACCCAUCUUC
target gene: LIPM
seed-corrected z-score: 1.042

Sequence: UUGGUGACCAACCAUCUUG
target gene: CFHR4
seed-corrected z-score: -0.04802

Sequence: UUCGGUUUUAUGUUUAGAC
target gene: CNTRL
seed-corrected z-score: -0.1072

Sequence: UCAGGUUGUAGAUGACUCG
target gene: NCLN
seed-corrected z-score: 1.256

Sequence: UGACAUCCCUUCCAGGUGC
target gene: PGAM2
seed-corrected z-score: 0.2058

Sequence: UAUUGGGUUCUAGAGCUUC
target gene: NPHP1
seed-corrected z-score: 0.3328

Sequence: AGAGAAGUAAAUGCAUAUC
target gene: HMGN2P46
seed-corrected z-score: 0.1063

Sequence: UAUGUGAUCUUCAAAGAUG
target gene: FDX1
seed-corrected z-score: 1.452

Sequence: UCUGGACCAAAUCAUCUCG
target gene: TFCP2L1
seed-corrected z-score: 0.05558

Sequence: ACACUGAUGAAGACCAAGG
target gene: OR3A3
seed-corrected z-score: 0.1242

Sequence: UCAGUGAACAGAUGGUCCC
target gene: IFT43
seed-corrected z-score: -0.7254

Sequence: UUUGGGAUGUCAGACAAGG
target gene: GSE1
seed-corrected z-score: 1.096

Sequence: UUCCGUUCCAGCCUUCUUG
target gene: APOA2
seed-corrected z-score: -0.4118

Sequence: UUAAUACCCUGCAAAGAUC
target gene: ACTG1P20
seed-corrected z-score: -0.3601

Sequence: AGGGUCUCAAAAUUUUUCC
target gene: PBDC1
seed-corrected z-score: 0.4353

Sequence: AUGUUUCCGAACCAUGUCC
target gene: TJAP1
seed-corrected z-score: -1.429

Sequence: AAGUCAUUACUGUAGAGCC
target gene: HTR2A
seed-corrected z-score: 0.3397

Sequence: UCCGGUAGAUCUUGAAGGC
target gene: CMTM5
seed-corrected z-score: 0.2123

Sequence: UAACCUUUCCUGUACAAGU
target gene: ABHD16A
seed-corrected z-score: 1.657

Sequence: AUGGUCACCACAGAUCUCG
target gene: IFT122
seed-corrected z-score: -0.9604

Sequence: UCCUGAAAGCGCUAAGUGA
target gene: ZNF322
seed-corrected z-score: -0.0003699

Sequence: UUUCAUUCUCCUGAAGCUG
target gene: PPP1CC
seed-corrected z-score: -0.6637

Sequence: UUACUUGCAAAGUAGUGGG
target gene: BLM
seed-corrected z-score: -0.5276

Sequence: UUUGGAGUUGAGAUGCCUU
target gene: C3orf14
seed-corrected z-score: 0.8057

Sequence: AAAGUUUCCUCUGUCUCCC
target gene: FAM170A
seed-corrected z-score: -0.7567

Sequence: AAAGGAGUCAUCAUACUUC
target gene: MAPK12
seed-corrected z-score: 0.5946

Sequence: UUUGCUGUUACUCCUUCGG
target gene: SAMSN1
seed-corrected z-score: 0.04045

Sequence: UCUUCGUUGAUAGCAGCCC
target gene: CECR2
seed-corrected z-score: -0.03831

Sequence: UUUAAACUCAUACCGUAUC
target gene: NOS1AP
seed-corrected z-score: -0.03937

Sequence: AGUUUAUCCACCGUGUUCU
target gene: SLC8A2
seed-corrected z-score: -0.3819

Sequence: UUUGGAUCGGCAGUGGUGU
target gene: PER1
seed-corrected z-score: 0.002074

Sequence: UCCGUUAAAAGGAAGGAGA
target gene: CACNG5
seed-corrected z-score: 0.1743

Once more, the final 4:

Sequence	target gene	seed-corrected z-score
UUUAAACUCAUACCGUAUC	NOS1AP	-0.03937
AGUUUAUCCACCGUGUUCU	SLC8A2	-0.3819
UUUGGAUCGGCAGUGGUGU	PER1	0.002074
UCCGUUAAAAGGAAGGAGA	CACNG5	0.1743

Data taken from PubChem BioAssay AID1159506, deposited by NCATS (2015).